Results reported in the supplement of paper PMC10849652.
The list shows a part of the results.

Sequences of proteins named here, by UniProt entry; tags and fusion partners are left off. A change or cut given only in a name is not applied to a line headed by its entry.
UniProt Q9BUT9: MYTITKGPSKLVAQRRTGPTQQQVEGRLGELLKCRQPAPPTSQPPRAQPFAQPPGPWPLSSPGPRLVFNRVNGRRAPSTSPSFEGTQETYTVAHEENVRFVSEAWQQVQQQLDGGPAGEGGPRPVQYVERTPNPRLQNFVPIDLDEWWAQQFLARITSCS
UniProt Q02078: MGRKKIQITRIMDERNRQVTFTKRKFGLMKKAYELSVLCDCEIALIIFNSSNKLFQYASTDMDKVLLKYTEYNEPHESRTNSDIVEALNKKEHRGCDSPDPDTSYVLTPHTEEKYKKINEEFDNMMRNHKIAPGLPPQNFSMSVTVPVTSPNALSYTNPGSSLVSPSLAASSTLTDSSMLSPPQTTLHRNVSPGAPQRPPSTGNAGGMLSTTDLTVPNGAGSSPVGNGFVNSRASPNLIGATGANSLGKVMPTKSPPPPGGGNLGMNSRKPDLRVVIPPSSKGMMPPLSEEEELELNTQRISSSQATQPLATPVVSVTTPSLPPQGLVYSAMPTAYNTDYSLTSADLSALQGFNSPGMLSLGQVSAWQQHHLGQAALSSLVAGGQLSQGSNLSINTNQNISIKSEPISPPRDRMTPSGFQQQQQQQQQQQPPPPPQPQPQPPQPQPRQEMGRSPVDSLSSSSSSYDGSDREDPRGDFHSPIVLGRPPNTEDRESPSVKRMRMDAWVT
UniProt Q06413, whole entry, looked up: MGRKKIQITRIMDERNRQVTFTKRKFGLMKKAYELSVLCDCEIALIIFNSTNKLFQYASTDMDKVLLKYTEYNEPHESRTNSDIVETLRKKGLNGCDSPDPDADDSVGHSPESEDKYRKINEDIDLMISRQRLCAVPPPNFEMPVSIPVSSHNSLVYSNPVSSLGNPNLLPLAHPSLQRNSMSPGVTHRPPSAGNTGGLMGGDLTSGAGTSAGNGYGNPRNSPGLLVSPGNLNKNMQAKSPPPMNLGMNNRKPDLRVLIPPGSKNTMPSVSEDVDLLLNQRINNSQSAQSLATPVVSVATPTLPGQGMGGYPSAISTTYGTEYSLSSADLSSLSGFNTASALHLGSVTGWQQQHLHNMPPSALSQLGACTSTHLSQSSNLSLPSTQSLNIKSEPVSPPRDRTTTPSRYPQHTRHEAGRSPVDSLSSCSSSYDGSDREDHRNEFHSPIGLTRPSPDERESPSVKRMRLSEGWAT
UniProt Q00987, whole entry, looked up: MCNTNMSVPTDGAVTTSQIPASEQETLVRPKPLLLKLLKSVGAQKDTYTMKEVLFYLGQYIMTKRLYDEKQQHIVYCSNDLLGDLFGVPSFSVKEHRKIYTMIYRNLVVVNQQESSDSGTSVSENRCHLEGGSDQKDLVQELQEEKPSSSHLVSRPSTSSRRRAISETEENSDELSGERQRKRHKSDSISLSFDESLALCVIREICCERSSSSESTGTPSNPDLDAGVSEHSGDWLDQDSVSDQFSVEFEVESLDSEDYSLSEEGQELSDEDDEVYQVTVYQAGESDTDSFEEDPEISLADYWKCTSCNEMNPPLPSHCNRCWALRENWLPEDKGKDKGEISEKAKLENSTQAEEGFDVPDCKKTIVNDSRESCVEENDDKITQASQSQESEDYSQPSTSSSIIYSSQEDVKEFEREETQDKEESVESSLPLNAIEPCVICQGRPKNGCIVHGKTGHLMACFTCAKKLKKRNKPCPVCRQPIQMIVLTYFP
UniProt P33992: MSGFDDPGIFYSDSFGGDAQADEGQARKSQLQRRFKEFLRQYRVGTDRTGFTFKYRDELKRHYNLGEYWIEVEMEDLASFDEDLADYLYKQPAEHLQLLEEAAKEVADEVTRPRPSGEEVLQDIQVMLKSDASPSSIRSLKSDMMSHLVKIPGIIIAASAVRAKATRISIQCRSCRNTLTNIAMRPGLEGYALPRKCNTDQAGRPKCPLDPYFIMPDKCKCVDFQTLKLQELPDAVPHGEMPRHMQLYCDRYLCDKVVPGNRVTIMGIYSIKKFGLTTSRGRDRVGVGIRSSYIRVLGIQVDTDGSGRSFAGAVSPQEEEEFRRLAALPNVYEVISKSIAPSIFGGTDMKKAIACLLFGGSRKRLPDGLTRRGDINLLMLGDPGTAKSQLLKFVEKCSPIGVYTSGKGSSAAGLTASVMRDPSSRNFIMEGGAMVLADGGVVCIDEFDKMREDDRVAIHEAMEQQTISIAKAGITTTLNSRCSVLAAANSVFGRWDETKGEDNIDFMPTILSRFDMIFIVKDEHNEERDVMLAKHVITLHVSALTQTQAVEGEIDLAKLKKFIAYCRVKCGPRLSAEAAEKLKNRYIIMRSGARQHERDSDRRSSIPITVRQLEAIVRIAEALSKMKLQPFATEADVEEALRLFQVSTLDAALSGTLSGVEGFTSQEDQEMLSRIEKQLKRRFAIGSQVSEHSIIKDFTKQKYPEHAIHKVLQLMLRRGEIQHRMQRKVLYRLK
UniProt Q9BTE3: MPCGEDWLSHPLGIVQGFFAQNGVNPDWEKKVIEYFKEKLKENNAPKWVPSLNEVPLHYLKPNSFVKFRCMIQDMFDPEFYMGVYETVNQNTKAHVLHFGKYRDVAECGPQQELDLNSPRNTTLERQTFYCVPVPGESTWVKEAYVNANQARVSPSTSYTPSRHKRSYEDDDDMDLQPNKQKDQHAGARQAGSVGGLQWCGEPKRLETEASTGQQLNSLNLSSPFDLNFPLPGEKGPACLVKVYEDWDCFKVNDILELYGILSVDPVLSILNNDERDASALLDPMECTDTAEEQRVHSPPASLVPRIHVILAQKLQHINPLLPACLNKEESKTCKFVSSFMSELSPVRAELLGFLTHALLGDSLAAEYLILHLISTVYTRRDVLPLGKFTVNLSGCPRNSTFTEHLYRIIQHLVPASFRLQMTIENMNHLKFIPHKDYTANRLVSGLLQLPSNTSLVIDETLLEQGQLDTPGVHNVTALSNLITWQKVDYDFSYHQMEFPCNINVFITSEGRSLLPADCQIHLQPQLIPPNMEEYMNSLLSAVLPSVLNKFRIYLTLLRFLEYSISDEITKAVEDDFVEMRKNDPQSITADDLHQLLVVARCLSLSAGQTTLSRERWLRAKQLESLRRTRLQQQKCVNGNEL
UniProt P51608, whole entry, looked up: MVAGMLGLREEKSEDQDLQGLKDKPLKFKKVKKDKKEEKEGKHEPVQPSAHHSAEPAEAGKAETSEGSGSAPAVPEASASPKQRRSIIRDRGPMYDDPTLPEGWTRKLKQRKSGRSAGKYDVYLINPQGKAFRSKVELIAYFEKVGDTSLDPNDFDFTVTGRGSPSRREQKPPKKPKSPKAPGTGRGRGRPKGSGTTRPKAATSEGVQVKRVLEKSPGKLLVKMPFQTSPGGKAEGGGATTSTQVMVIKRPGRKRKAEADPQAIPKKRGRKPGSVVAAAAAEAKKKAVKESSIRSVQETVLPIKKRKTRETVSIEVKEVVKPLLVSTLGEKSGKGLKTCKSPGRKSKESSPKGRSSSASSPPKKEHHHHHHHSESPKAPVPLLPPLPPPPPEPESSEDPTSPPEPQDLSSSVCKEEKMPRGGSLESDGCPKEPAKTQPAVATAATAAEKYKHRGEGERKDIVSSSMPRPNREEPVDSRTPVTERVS
UniProt Q8IWA4: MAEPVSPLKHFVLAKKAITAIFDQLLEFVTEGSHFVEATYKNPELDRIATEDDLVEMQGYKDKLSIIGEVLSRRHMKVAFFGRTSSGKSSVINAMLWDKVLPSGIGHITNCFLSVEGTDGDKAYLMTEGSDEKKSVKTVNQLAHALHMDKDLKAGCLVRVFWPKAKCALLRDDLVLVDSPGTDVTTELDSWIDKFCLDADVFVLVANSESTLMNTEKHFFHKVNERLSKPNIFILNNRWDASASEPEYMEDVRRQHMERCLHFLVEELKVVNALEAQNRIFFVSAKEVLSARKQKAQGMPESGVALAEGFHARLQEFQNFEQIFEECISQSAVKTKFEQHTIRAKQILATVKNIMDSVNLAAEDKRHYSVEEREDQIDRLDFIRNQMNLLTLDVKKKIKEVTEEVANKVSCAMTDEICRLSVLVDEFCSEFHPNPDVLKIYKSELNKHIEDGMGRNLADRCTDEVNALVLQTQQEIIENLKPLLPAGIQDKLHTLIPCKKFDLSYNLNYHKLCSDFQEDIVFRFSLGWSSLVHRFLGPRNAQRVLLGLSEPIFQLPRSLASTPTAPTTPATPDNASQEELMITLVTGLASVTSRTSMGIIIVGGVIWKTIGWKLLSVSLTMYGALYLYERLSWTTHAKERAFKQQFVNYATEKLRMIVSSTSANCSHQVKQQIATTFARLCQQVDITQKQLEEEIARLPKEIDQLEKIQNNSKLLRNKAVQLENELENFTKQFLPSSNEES
UniProt Q14696: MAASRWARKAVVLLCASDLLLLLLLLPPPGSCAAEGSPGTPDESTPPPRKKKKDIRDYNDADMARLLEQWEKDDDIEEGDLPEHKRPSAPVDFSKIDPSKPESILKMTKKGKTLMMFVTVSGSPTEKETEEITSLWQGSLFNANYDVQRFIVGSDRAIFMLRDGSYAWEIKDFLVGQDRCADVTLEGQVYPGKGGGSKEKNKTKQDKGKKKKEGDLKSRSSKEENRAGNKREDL
UniProt Q9BV79: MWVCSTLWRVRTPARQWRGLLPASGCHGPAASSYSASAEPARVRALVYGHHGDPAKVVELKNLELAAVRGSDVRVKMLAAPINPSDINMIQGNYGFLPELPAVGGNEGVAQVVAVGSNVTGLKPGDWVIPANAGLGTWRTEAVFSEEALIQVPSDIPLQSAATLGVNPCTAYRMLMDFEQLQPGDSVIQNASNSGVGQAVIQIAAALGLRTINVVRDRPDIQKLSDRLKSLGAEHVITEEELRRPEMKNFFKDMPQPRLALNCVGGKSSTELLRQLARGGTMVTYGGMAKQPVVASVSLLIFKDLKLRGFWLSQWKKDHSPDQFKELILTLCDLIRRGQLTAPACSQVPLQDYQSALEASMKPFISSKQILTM
UniProt P50579: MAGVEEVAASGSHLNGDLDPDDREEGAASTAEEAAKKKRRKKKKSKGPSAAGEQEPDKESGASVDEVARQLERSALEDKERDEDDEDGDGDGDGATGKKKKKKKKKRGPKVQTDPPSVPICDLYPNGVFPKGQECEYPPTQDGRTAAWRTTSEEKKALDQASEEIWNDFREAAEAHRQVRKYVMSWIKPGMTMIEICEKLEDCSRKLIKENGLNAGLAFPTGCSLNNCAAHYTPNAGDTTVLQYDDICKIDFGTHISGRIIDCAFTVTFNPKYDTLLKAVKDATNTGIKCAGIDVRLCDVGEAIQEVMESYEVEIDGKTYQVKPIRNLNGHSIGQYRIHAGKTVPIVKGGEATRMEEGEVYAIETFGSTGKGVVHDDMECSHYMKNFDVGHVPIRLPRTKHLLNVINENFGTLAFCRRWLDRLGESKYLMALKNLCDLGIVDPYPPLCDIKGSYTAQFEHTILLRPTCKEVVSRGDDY
UniProt P43121, whole entry, looked up: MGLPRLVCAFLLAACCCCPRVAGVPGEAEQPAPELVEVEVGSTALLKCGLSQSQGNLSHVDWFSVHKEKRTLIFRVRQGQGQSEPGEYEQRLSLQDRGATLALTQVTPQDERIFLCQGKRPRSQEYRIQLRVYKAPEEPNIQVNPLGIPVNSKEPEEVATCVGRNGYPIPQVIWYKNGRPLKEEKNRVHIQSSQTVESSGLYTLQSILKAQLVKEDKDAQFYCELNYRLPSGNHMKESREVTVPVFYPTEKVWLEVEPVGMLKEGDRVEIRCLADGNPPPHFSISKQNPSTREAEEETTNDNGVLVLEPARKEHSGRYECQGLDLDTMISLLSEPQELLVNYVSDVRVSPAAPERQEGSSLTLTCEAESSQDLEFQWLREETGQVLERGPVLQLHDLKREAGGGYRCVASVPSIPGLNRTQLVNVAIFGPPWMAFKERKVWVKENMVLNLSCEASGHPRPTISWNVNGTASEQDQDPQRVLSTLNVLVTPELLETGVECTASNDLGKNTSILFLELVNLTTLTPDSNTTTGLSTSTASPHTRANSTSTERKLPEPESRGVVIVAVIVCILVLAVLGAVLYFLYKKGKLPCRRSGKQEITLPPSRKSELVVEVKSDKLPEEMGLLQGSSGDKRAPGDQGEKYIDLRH
UniProt Q5VZF2: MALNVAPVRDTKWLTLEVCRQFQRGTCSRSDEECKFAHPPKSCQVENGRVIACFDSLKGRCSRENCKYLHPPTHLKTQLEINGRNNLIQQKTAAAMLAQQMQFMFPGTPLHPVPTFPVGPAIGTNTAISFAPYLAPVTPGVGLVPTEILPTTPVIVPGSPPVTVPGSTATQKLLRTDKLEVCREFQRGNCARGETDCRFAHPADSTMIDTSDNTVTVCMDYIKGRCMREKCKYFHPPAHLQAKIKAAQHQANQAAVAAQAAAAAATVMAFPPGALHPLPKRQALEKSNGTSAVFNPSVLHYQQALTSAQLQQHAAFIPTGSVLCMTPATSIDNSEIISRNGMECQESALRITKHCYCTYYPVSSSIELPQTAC
UniProt Q86V88: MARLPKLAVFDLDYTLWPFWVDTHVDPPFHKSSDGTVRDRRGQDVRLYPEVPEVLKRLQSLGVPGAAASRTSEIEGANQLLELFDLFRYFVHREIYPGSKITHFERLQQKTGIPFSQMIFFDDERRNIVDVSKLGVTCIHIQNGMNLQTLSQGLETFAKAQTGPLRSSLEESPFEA

Key:
Assay in all cases: log2 fold change, soluble protein after heating vs DMSO (PISA); higher = thermal stabilisation; K562 lysate, 10 uM; active = over 0.2 and 3.5 SD of the protein, either way, in both replicates (recomputed)
[1] = compound: NCC(=O)Nc1ccc(-n2nc(C(F)(F)F)cc2-c2ccc3c(ccc4ccccc43)c2)cc1
Method in brief: (§1)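 K562 pellets were dounce-homogenised in PBS pH 7.4 with 1 mM MgCl2, and the crude extract at 1 mg/mL protein was treated with 10 μM compound for 30 min. Aliquots were heated for 3 min across 48°C-58°C, pooled, and brought to 0.5% NP-40 at 4°C; soluble protein was the supernatant after 21,000xg for 90 min. Soluble protein was quantified by TMTpro 16plex LC-MS/MS with channel sums equalised, and reported as log2 fold change in thermal stability against DMSO controls, with values from duplicates.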

vorinostat = compound: O=C(CCCCCCC(=O)Nc1ccccc1)NO [vorinostat]
Method in brief: as §1

silmitasertib = compound: O=C(O)c1ccc2c(c1)nc(Nc1cccc(Cl)c1)c1ccncc12 [silmitasertib]
Method in brief: as §1

[2] = compound: O=C1NC(=O)C(c2cnc3ccccn23)=C1c1cn2c3c(cc(F)cc13)CN(C(=O)N1CCCCC1)CC2
Method in brief: as §1

entospletinib = compound: c1cn2cc(-c3ccc4cn[nH]c4c3)nc(Nc3ccc(N4CCOCC4)cc3)c2n1 [entospletinib]
Method in brief: as §1

| Target | log2 fold change [1] | log2 fold change (vorinostat) | log2 fold change (silmitasertib) | log2 fold change [2] | log2 fold change (entospletinib) |
| --- | --- | --- | --- | --- | --- |
| MFSD8 (UniProt Q8NHS3) | inactive: 0.02 | inactive: 0.067 | inactive: -0.106 | inactive: 0.018 | – |
| MCM6 (UniProt Q14566) | inactive: -0.019 | inactive: -0.167 | inactive: 0.053 | inactive: -0.003 | inactive: 0.003 |
| MBNL1 (UniProt C9JP00) | inactive: 0.086 | inactive: -0.001 | inactive: -0.031 | inactive: 0.039 | inactive: -0.021 |
| MEX3A (UniProt A1L020) | inactive: -0.106 | – | – | – | – |
| MCRIP2 (UniProt Q9BUT9) | inactive: -0.048 | inactive: -0.035 | inactive: -0.147 | inactive: 0.031 | inactive: -0.142 |
| MCFD2 (UniProt Q8NI22) | inactive: -0.023 | inactive: 0.358 | inactive: -0.196 | inactive: 0.029 | inactive: -0.059 |
| MCUR1 (UniProt Q96AQ8) | inactive: 0.046 | inactive: 0.09 | inactive: -0.071 | inactive: 0.006 | inactive: -0.035 |
| METTL5 (UniProt Q9NRN9) | inactive: 0.007 | inactive: 0.141 | inactive: 0 | inactive: -0.011 | inactive: 0.016 |
| MAVS (UniProt Q7Z434) | inactive: 0.009 | inactive: 0.02 | inactive: -0.007 | inactive: 0.057 | inactive: -0.029 |
| MED11 (UniProt Q9P086) | inactive: -0.292 | inactive: -0.202 | inactive: 0.057 | inactive: 0.111 | – |
| MCM10 (UniProt Q7L590) | inactive: 0.014 | inactive: -0.189 | inactive: 0.127 | inactive: 0.023 | – |
| MEF2A isoform 2 (UniProt Q02078) | inactive: -0.003 | inactive: -0.049 | inactive: 0.065 | inactive: -0.12 | – |
| MED13 (UniProt Q9UHV7) | inactive: -0.034 | inactive: -0.173 | inactive: 0.019 | inactive: -0.017 | inactive: -0.034 |
| MCM4 (UniProt P33991) | inactive: 0.019 | inactive: -0.02 | inactive: 0.079 | inactive: 0.012 | inactive: 0.012 |
| MFHAS1 (UniProt Q9Y4C4) | inactive: 0.058 | inactive: 0.135 | inactive: -0.008 | inactive: 0.021 | – |
| MFSD12 isoform 3 (UniProt Q6NUT3) | inactive: 0.051 | inactive: 0.077 | inactive: -0.065 | inactive: 0.046 | – |
| MDN1 (UniProt Q9NU22) | inactive: 0 | inactive: -0.175 | inactive: 0.025 | inactive: -0.003 | inactive: -0.017 |
| MBD3 (UniProt O95983) | inactive: -0.061 | inactive: -0.115 | inactive: -0.027 | inactive: 0.017 | inactive: -0.003 |
| MED10 (UniProt Q9BTT4) | inactive: -0.001 | inactive: -0.04 | inactive: -0.085 | inactive: 0.021 | active: -0.349 |

2 entries drawn at random from the list so far:

| Target | log2 fold change [1] | log2 fold change (vorinostat) | log2 fold change (silmitasertib) | log2 fold change [2] | log2 fold change (entospletinib) |
| --- | --- | --- | --- | --- | --- |
| MCRIP2 (UniProt Q9BUT9) | inactive: -0.048 | inactive: -0.035 | inactive: -0.147 | inactive: 0.031 | inactive: -0.142 |
| MED13 (UniProt Q9UHV7) | inactive: -0.034 | inactive: -0.173 | inactive: 0.019 | inactive: -0.017 | inactive: -0.034 |

The list continues.

| Target | log2 fold change [1] | log2 fold change (vorinostat) | log2 fold change (silmitasertib) | log2 fold change [2] | log2 fold change (entospletinib) |
| --- | --- | --- | --- | --- | --- |
| MEF2C isoform 5 (UniProt Q06413) | inactive: 0.02 | inactive: 0.006 | inactive: -0.008 | inactive: -0.002 | inactive: 0.003 |
| MDM2 isoform 11 (UniProt Q00987) | inactive: -0.137 | inactive: -0.062 | inactive: 0 | inactive: -0.039 | – |
| MCM5 (UniProt P33992) | inactive: -0.026 | inactive: -0.101 | inactive: 0.044 | inactive: -0.012 | inactive: 0 |
| MFSD5 isoform 2 (UniProt Q6N075) | inactive: -0.111 | inactive: 0.122 | inactive: -0.002 | inactive: -0.022 | inactive: -0.062 |
| MCOLN1 (UniProt Q9GZU1) | inactive: -0.108 | inactive: 0 | inactive: -0.175 | inactive: 0.138 | – |
| MCMBP isoform 2 (UniProt Q9BTE3) | inactive: -0.153 | inactive: -0.413 | inactive: -0.092 | inactive: 0.064 | inactive: -0.654 |
| MECP2 isoform 2 (UniProt P51608) | inactive: 0.117 | inactive: 0.141 | inactive: -0.014 | inactive: 0.001 | inactive: -0.083 |
| ME2 (UniProt P23368) | inactive: -0.009 | inactive: 0.156 | inactive: 0.052 | inactive: 0.005 | inactive: -0.015 |
| MFAP3 (UniProt P55082) | inactive: -0.048 | inactive: -0.075 | inactive: -0.058 | inactive: -0.091 | – |
| MCM3AP (UniProt O60318) | inactive: -0.073 | inactive: -0.087 | inactive: -0.069 | – | – |
| MED8 isoform 2 (UniProt Q96G25) | inactive: 0.019 | inactive: 0.037 | inactive: -0.012 | inactive: -0.026 | inactive: 0 |
| MED16 (UniProt Q9Y2X0) | inactive: -0.005 | active: -0.354 | inactive: 0.052 | inactive: -0.022 | inactive: 0.016 |
| MED20 (UniProt Q9H944) | inactive: -0.03 | inactive: -0.088 | inactive: -0.061 | inactive: -0.014 | inactive: -0.064 |
| MCMBP (UniProt Q9BTE3) | inactive: -0.01 | active: -0.415 | inactive: 0.028 | inactive: -0.013 | inactive: -0.007 |
| MCM7 (UniProt P33993) | inactive: -0.03 | inactive: -0.121 | inactive: 0.109 | inactive: -0.005 | inactive: 0.004 |
| MFN1 (UniProt Q8IWA4) | inactive: -0.064 | inactive: -0.277 | inactive: 0.004 | inactive: -0.035 | inactive: 0.027 |
| MAZ isoform 2 (UniProt P56270) | inactive: 0.127 | inactive: -0.005 | inactive: -0.13 | inactive: 0.006 | inactive: 0.104 |
| MCCC1 (UniProt Q96RQ3) | inactive: 0.028 | active: -0.292 | inactive: 0.02 | inactive: -0.003 | inactive: 0.023 |
| MCRS1 isoform 2 (UniProt Q96EZ8) | inactive: 0.021 | – | – | – | – |

| Target | log2 fold change [1] | log2 fold change (vorinostat) | log2 fold change (silmitasertib) | log2 fold change [2] | log2 fold change (entospletinib) |
| --- | --- | --- | --- | --- | --- |
| MESD (UniProt Q14696) | inactive: -0.109 | inactive: 0.117 | inactive: 0.009 | inactive: -0.114 | inactive: 0.011 |
| MBTPS1 (UniProt Q14703) | inactive: 0.17 | inactive: 0.116 | inactive: -0.023 | inactive: -0.044 | inactive: 0.094 |
| MECR (UniProt Q9BV79) | inactive: -0.037 | active: -0.268 | inactive: 0.009 | inactive: -0.016 | inactive: 0.011 |
| MFGE8 (UniProt Q08431) | inactive: -0.036 | inactive: 0.087 | inactive: -0.008 | inactive: 0.037 | inactive: -0.025 |
| METAP2 (UniProt P50579) | inactive: 0 | inactive: 0.097 | inactive: 0.012 | inactive: 0.033 | inactive: 0.014 |
| MDH1 isoform 3 (UniProt P40925) | inactive: 0 | inactive: 0.145 | inactive: -0.007 | inactive: 0.012 | inactive: 0.057 |
| MED13L (UniProt Q71F56) | inactive: -0.057 | active: -0.253 | inactive: 0.017 | inactive: 0.017 | inactive: -0.052 |
| MCAM (UniProt P43121) | inactive: 0.046 | inactive: 0.138 | inactive: -0.011 | inactive: -0.022 | inactive: 0.008 |
| METTL7A (UniProt Q9H8H3) | inactive: 0.037 | inactive: 0.017 | inactive: -0.053 | inactive: 0.274 | inactive: -0.001 |
| MBNL1 isoform 5 (UniProt Q9NR56) | inactive: -0.032 | inactive: -0.068 | inactive: 0.03 | inactive: -0.057 | inactive: 0.001 |
| MBNL2 (UniProt Q5VZF2) | inactive: -0.004 | inactive: -0.053 | inactive: -0.063 | inactive: 0.01 | inactive: -0.032 |
| MCM2 (UniProt P49736) | inactive: 0.022 | inactive: -0.114 | inactive: 0.015 | inactive: -0.006 | inactive: 0.021 |
| MDP1 (UniProt Q86V88) | inactive: -0.01 | inactive: 0.13 | inactive: 0.017 | inactive: 0.004 | inactive: -0.064 |
| METTL18 (UniProt O95568) | inactive: -0.012 | inactive: 0.025 | inactive: 0 | inactive: -0.014 | inactive: -0.164 |
| MATR3 (UniProt P43243) | inactive: 0.071 | inactive: -0.102 | inactive: 0.017 | inactive: -0.009 | inactive: 0.018 |
| MCRIP1 (UniProt I3L4Q0) | inactive: -0.033 | inactive: 0.137 | inactive: -0.012 | inactive: -0.073 | inactive: -0.034 |
| METAP1D (UniProt Q6UB28) | inactive: 0.002 | inactive: 0.221 | inactive: -0.09 | inactive: -0.01 | inactive: 0.027 |
| MEAK7 (UniProt Q6P9B6) | inactive: -0.008 | inactive: -0.174 | inactive: 0.018 | inactive: 0.015 | inactive: -0.002 |
